B1: Uncharacterized protein (EHI_118750) (protein, UniProt C4LYM3 1-135)
chain: MATEQEAMALMGSIDVPNGQWVVYEVKNKQLVFRTSGNGVDSLRDELKDDEACFALINLRCTLEGIPDQARGIFIDWKGPKCKGIAKVRVREFKDQALEVLMPHHGELEAVGKTEFTEDIILKRWAMNSGSHVIN
B2: Enhancer binding protein-1 (protein, UniProt C4M5C4 1-306)
chain: MTTLYVSHLDYSLKVEDVQNAFKTYNPKEVKIISTPIGYSRGFAFIEFATPQEAEKALEMDRHTIGKMEIKVQKALPKEETTTERKMNRRGFKGKRNTRKRHLVKRTNEVTDNMLFIKNLPFAITEEKLKEMFSKFGVVEITLIKTHRKKGNVTKNNGIAFITVKTAEEQKKAIAEMNNFEVEGRKITVAAAYKKVENKQTTKKTNEPKSLSETNVFVKNLPFTLTDEGFKKLFEKYDVVEATIVKRHNKKLNVDRSKGYGFVTFKTAEQQKKAIAEMDNFEVEGRKITVTSAYQRAEKKEETTSN
B3: Phosphoglucomutase (protein, UniProt O15820 1-553)
chain: MQATIKRYPTSPISGQTLGTSGLRKRASEVENTPNYLENFVNAMFNAASNLQKPGKIIIGGDGRYLNLKALDIIIRVALSRGFTDIVVGKSGFMSTPAESATIIRRKAEAGFIMTASHNPAGKEHGDFGLKLNMSNGGPAPIEVTSKIEESARNIKEIVIAELNKPLNIDSVGDIEIECEGKKAVVHVIDPLEDYIAYLHECFDFENLKQFVSKYHLKVQVDGFNAVTGIYNKKVFCELLGLPESSLKNAIPMPDFGGKHPDPNLTYAAELVHAVIPEDSPYDIGFAFDGDGDRNLIVGRGAFVSPSDSLAILSTKYNDIPFFVKNGFKGVARSMPTSAAVDHVTSITETPTGWKFFGNLMDSGKISLCGEESFGTGCCGIREKDGIWAALCWVSILAAESERAQRLVGVKEILESHWAKYGRNYYQRYDFDEVDKKAAEDMMQMMRDNAKTVKCDLNGVPLKFCDDFEYHDSVDGSVTSKQGIRFVFEDGSRIIFRLSGTGSVGATIRVYFDKYSKDYKADQTKVLADMVTVAYAVSQITKFTGREKPSVVT
B4: Thioredoxin domain-containing protein (protein, UniProt C4M3Q0 1-233)
chain: MSCNQQKECCKKECQEKECCKECCCPRIKAFKKFINTFEKAQIGKEAPEFKAPAYCPCGSIKEIDINEYRGKYVVLLFYPLDWTFVCPTEMIGYSELAGQLKEIDCEVIGVSVDSVYCHQAWCEADKSKGGVGKLTFPLVSDIKRCISIKYGMLNVEAGIARRGYVIIDDKGKVRYIQMNDDGIGRSTEETIRIVKAIQFSDEHGAVCPLNWKPGKDTIEPTPDGIKKYLTAH
B5: Uncharacterized protein (EHI_161070) (protein, UniProt C4M2S3 1-211)
chain: MSATIEELKTCSNQQEFEAAGEAAKKWFTEVLSNGWTETTKGEVTIYDKPSVNNHHFIKTVTQSKLKAEDIFNKVKSADFATSHKYDKELVESEVLETINEHLKVTKQVNSAPWPVAAREFVSVLIDYEENGSFYIVSTSINYPKCDTVGKKYVRGVKLFGMKFTPNDEGCLIERVLEVDPRGSVIAMAVNASKKEDANRLLNMKKFFEQN
B6: Fructose-1,6-bisphosphate aldolase (protein, UniProt C4LXD7 1-330)
chain: MAAKTVNYKELGLCNHKEMFEHAIKGGFAVPGFNFNNLEQMQAIIQACTEAKSPVILQVSKGAREYANATLLRNLAKGAVEYSKEIDPEHKGVPISLNLDHGANFQICKECVDNGFSNVMIDGSALPYEENVKLTKQVVEYAHKFGVTVEGELGVLSGVEDDVAAAEHVFTDPKDVEAFVKDTGVDALAISIGTSHGAYKFKPGMHPRIRLDILHEVEKRIPGFPIVLHGSSSVPQEWVAVINQYGGKLESAIGIPEDQIREAVKSAVCKVNIDSDGRLAMTGSIRRYLAEHPKDFDPRQYLGPARQALKELYLHKVSDKVLNSAGKSWY
B7: Epimerase domain-containing protein (protein, UniProt C4M882 1-365)
chain: MKALVLGGTGFVGRNLVKMLVDSNEYSFIRSVDKVFPETAYLSKEHASVYDNPEKCVFVQGNLVNASSVSKMFSIEGGFDVVFDCAAETKLGQEEFMYEQKTYGLTKLVAEEAVKQKVKRFVHLSNAQVYDSSSKPKDEKAKIKPWTKLAASQAKADELLIGMKELPFVILRPAIIYGPGDVTGIAPRIICAAVYKYTKKKMEFLWTGDMKLNTVHVHDVCKAMMLCGKVDGPIKNGEIYNLCDKNDTNQKKINTILEEIFQIKTGFKGTIISTAAEKLGMDGVCETVNDEHMKPWSQLCKEENLIGTPLSPYLDQELLYNNPYCIDGSSIEKKGFVYDYPEVTTELVKEEIKYFSDQKLFPSYA
B8: Adenylate kinase (protein, UniProt O96907 1-193)
chain: MAKVFLIMLGGPGAGKGTQCANIEKHLNSSAHISTGDLLRAEIKNKTEIGLKVEDIIRNGQLVSDEIICNMVNNFIAKNEKEVIVFDGYPRAVSQLEALLKEATAETKICVINLEIPDEILIQRIVSRGKTSGRADDNTEAAAKRLAVYHAQHDEMIKAIKAKNLPYFVVDHLGGPDEVFNEIKGVFANVGLH
B9: NAD(FAD)-dependent dehydrogenase (protein, UniProt C4M6H3 1-1066)
chain: MSSYDIVIIGAGCTGACCAMELSKYKNLKIALLEKARDVSTGATSANSGIVHCGIDTTLETLKGRLVVRGNTLIHELQPKLNFGLTTCGELMVAKTDEEIPNLNKYMEIAKTKNVPVELWDYEKIHKEEPNLSENIKKAIYCPTTSVLDPYEFTIATCLTAKANGVHIYTSTTVNGIKKIDNGYEVVCENGKKFIAKVLLNCAGVFASQVSEMLYPADFHITARKGEEYLLDRKLQGMVKHVIFPCPTGVTKGTLIIPTVDGTIMVGPNADIQDSYTDATTTSEGLKKVFDLAKLLVPTINNMDVISAFAGLRPAIIEHNDFVIRENEKFPCFIEVVGIQSPGLTASPAIAEYTKNIFIEAVKKSHPEIVLEEKSDFKYVPLSKKFRNMNDSERAEAAKKDAAYSKIVCVCEKVTEGDVNAAIDEGARTVDAIKLRTRAGMGRCQGSYCTPRVMEILSKRLNIPMTAVAKNYPGSEIAPYIAGGEEKKLTEEYPSWETIPNPHITKPCNGETIERKEFDIVVVGGGPSGLAAAKAALETKKDLKVAVIERMERVGGVLLQCIHSGFGLGRYGEELTGPEYAYRLGEETEAAGAVLMVNTYVTDVENKGEEYVVKAVVYGTAPVEIHAKKCIFTVGCRERSRFGIKVAGTRCAGVMTAGLAQALVNYKGILPGKKVVIQGSGDIGLIMARRMALEGAKVLGVYEILPKISGLQRNVVQCCKDFNIPIHLSEVVTRINGYPRITSVIMTKCDPKTLAPIAGTEYEIECDCLLLSVGLIPLPDLTQQAGHNVQLNPRTRGPIVDGFRCVEKGIYAAGNQLHVHDLADEASNEGAIAGEAAALSLGGEKEAIKVIPAPELLYCVPERVVISDKKQKLSFRFRQDFGSAHVIAKIGETIIGEEEIEHAIPAEMGHVWVIPKDCQIGQEVTLTVIPKAHEEVTEQKEGEIVKHMNCIVCPRGCPIEVKIDAKSNEITSIKGNSCPRGAAYVRQEHIEPFRVFSTTLPVEGGNLIRVPVKLTKPVPRSKIFEVMEIIHKQSPIKAPINKGQVLVKIPKMTDIVACYPVVALEE
B10: Profilin (protein, UniProt P49230 1-130)
chain: MSWQSYVDSFLVGAGKGMGGAIIGLQGGVWAASANCTPSAQESVAIGTACASNIAGLQQTGVVIGGKKYMITRVDADEGTAMGKKGAEGISIYKTKQAVIIGYFSDASVSAGQNSDATYKCAKYLMDAGY
B11: Alpha-1,4 glucan phosphorylase (protein, UniProt C4LWJ2 1-884)
chain: MQKSSSSEGVSHVRRSISLNKLKNQFADAAEAEHFTNESDSEKYNNLWDYCSLYLSKDVETIKQQIANHIEYTLACQRFDFKTKSLFTATAISLRERMTEYWNDTHQYFREIQTKRMYYLSIEYLIGRSLMNAICNLGLENEYRDVVSQFGSSLEELYEYENDAALGSGGLGRLAACFLDSLATMNLPAWGYGIRYQYGMFKQQISHGYQIETPEYWLEAGNPWEIVRKDVNHEVRFGGYVTVDKATGRMKWEGGNTVRAIAYDMPVPGYKTLNTLNLRLWSSKPSNQFDLEHFNKEEDIDYWQKVHNQQKDENICKVLYPNSSHYKGQELRLKQQFFFTSASLQDIVRRFKKMRIAMNEFPQYVAIQLNDTHPTVGVLELMRILLDIEGLEWNQAWEIVVQTFAYTNHTVLPEALETWPVPMFENLLPRHLQICYEINSRFLSWVKTAHNCTEQEIAALSIIEESNPKRIRMANLAIIGSHTVNGVAAIHSQIIKDVIFRQFSKIWPHKFINVTNGVTPRRWMLQCNPGLSKLITETLKSDEWVVELSLLEGLRSLCDHSLEEKFRAVKTQNKERLIRLVSKITDGEIVLNSSYLFDVMIKRIHEYKRQSLAILGTIAQYLALKKMTPEERAQQVPRVKIFAGKAATSYENAKIIIKLINSVADIVNNDKTIDNMLKIVFIPNYSVSLAEVIIPANDINEQISTAGYEASGTSCMKFCMNGGLIIGTWDGANVEIAEEIGEENMFMFGAKKNEVELIRQQGTSYIDERLYDVLKAISGGMFGAADWFNKLIGQFWGGNDYYLVAHDFASYLEAQMKVDATWKKPQEWNHKCVMCVSKMGKFSSDRSMKEYAANVWNIHPCPLPETDMNDMMDIAKKQLLPEKK
B12: MHD domain-containing protein (protein, UniProt B1N355 1-414)
chain: MISAIFFMNAKGDLLISRIYRDDVMKGVASAFRSYVLTEKNVLPVKIVGSTVFYHIRVNSLYIVALARSNNNAAVVFEVLHKIVEVFQAYFSTIDENTIKSQYVLIYELLDEILDFGYPQFCTKDELQSLITFGKAKAVQRGNIAIQATGQIPWRSPDIFYKKNQLFLDVIESVNLTVSAKGTILSNDVNGVIKMRTQLSGMPDCSLGMNDKALLLGDSAQKKSIQLADVTFHQCVRLTRFDQDRSINFIPPDGDFDLMKYRTTDNISQQFRLLHNIKESSKTHLSLDINVRALFSELQYGENVRIKIPVPKNAALCKTRCTAGSAKYHPEHAAILWRISRFNGKTQQTITVDVDLVQTTQSQRWDKPPILMDFVIPALTATGLQIRYLKIASDYKTIKWVRYITKAGAIQYRL
B13: Adenylyl cyclase-associated protein (protein, UniProt C4M295 1-478)
chain: MSTEAELKTLLAQVMNRLETVTARLEKLEGNTTNSTKSSTSNSTCECGDVPKAVQAFKELIEEYLKPQVEAAQGFDEILGKCMNDFLNVAEQVSGLIEVAAKSQKPTQEEFQKMIQPISEKMMAVGEYKDKNFKSPYINYLSAIGEAVPVFGWICVEKTPAPYVADLIPGSEFYTNKVLVATKGKEQNKYDWALNFIKFLKEMVVYIKQYHTTGLTWNPKGGVASAQAAPVAPKVETPKEEPKPVVKQQQPNPAGLFAELNKGTAISGGLKHVTADMKTKNMKPEDKVPLEPKKVTTNTPKPATAKSVVQKPPKIEKNLNKWDISYHNGNKNIEIDGTFQDSIYIFKCENSAVKVNGKINCISVDGCKKLTLICDTIVSYVEVINCNSIDIRVIELTPTVNIDKSQSVNVHLSEKALDGNTTVNTSKCDAVNISFPNPEDKEDEVEYPIPEQIYTIVKENKLYPQIYFHDKSSYYFPK

These are yes or no findings as the source states them, for the method shown. In cells and extracts the contact can be indirect. A yes stands for co-enrichment or nearness to the bait. Other partners may have been found. Tags and fused reporters may be left off the sequences shown.

The assay addresses EhVps23 (E. histolytica (endogenous in HM1:IMSS trophozoites)). In words: affinity purification with mass spectrometry; immunoprecipitation with α-EhVps23 antibody and protein G-agarose from trophozoite lysates (10 mM Tris-HCl, 50 mM NaCl, protease inhibitors, freeze-thawing; pre-cleared with Protein-G, 2 h at 4°C); precipitate separated by gel electrophoresis, LC-ESI-HDMSE.
Take B1: the binding entry is “binds”.
Take B2: the binding entry is given as “binds”.
Regarding B3, the binding entry is listed as “binds”.
As to B4, the binding result is listed as “binds”.
On to B5, for which the binding result was “binds”.
On to B6, for which the binding result is reported as “binds”.
Then B7, with “binds”; and B8, with “binds”.
As to B9, the binding result is recorded as “binds”.
For B10, the binding entry is on record as “binds”.
As to B11, the binding entry is “binds”.
For B12, the binding entry is reported as “binds”.
With B13, the binding entry is reported as “binds”.
